Test results reported in patent US10543284B2 (Suzhou Suncadia Biopharmaceuticals Co., Ltd., priority 2015, dated 2020).

Test: general procedure: solution-phase peptide synthesis; 2-(7-Azabenzotriazol)-N,N,N',N'-tetramethyluronium hexafluorophosphate / N,N-dii
Conditions: late stage modification step

(S)-2-((2R,3R)-3-((1S,3S,5S)-2-((3R,4S,5S)-4-((S)—N,3-dimethyl-2-((S)-3-methyl-2-(methylamino)butanamide)butanamide)-3-methoxy-5-methylheptanoyl)-2-azabicyclo[3.1.0]hexane-3-yl)-3-methoxy-2-methylpropanamido)-3-(2-fluorophenyl) propionic acid
step yield: 20%
